From publication PMC8317927 (Journal of Enzyme Inhibition and Medicinal Chemistry, 2021)

Tested on: HAase protein
Test: Circular dichroism measurement of HAase secondary structure
Parameters: species or system bovine
Conditions: far-UV CD, HAase 0.2 mg/mL, samples at 10 and 20 μg/mL; for α-helix content of HAase protein after co-incubation: HAase alone 35.4%; for random coil content of HAase protein after co-incubation: HAase alone 39.3%

Row | Compound | α-helix content of HAase protein after co-incubation | random coil content of HAase protein after co-incubation
1 | CC1(C)CCC2(C(=O)O)CCC3(C)C(=CCC4C5(C)Cc6c([nH]c7c(F)cc(F)cc67)C(C)(C)C5CCC43C)C2C1 (stereo not shown) [Compound 6c] | 26.1% | 42.5%
2 | CC1(C)CCC2(C(=O)O)CCC3(C)C(=CCC4C5(C)Cc6c([nH]c7c(Cl)cccc67)C(C)(C)C5CCC43C)C2C1 (stereo not shown) [Compound 6g] | 29.8% | 44.7%
